Measurements from patent publication US20150050301A1, “Contiguous Overlapping Peptides for Treatment of House Dust Mites Allergy” (ANERGIS S.A., priority 2013, published 2015).
“Also recorded” adds a separate entry of the source. Part of at least one peptide drawing is inferred or uncertain, most often the ends. Some entries repeat one wording, which the source may state once for all of them. Residues, ends and D or L forms follow the SMILES beside them. No end group written: not given here.

What was measured:
[1] = system: IgE of sera of house dust mite allergic patients binding to nDer p 1; assay: Competition ELISA on Der p 1 coated plates; design: species or system human; settings: sera from patients allergic to house dust mites; COPs 10^−5 to 10^−10 M
Protocol: (§1) Purified Der p 1 or Der p 2 at 1.0 μg/ml were coated overnight on 96-well Nunc Maxisorp® immunoplates (Thermo Fisher Scientific Inc., Wohlen, Switzerland). After blocking with 1% BSA, either twenty-fold, thirty-fold or forty-fold up to 200-fold dilutions of patient serum were added depending on specific IgE content. […] Sera of allergic patients were obtained from US and Europe (PlasmaLab International, Everett, Wash., USA and Biomnis, Lyon, France) respectively) selected for positive CAP for D. pteronyssinus and clear signal over background and used to test for competition with the peptides. Serial dilutions of each set of COPs, namely for Der p 1 Set A, B, C or D and for Der p 2 mixes D, E or F at concentrations ranging from 10^−5 to 10^−10 M were pre-incubated with selected serums for 15 min. on ice.

[2] = system: IgE of sera of house dust mite allergic patients binding to nDer p 2; assay: Competition ELISA on Der p 2 coated plates; design: species or system human; settings: sera from patients allergic to house dust mites; COPs 10^−5 to 10^−10 M
Protocol: as §1

IgE = assay: Direct ELISA of Der p 2 COPs; format: binding, human
[3] = system: RBL-703/21 cells transfected with human Fc epsilon RI receptor, sensitized with sera from patients with house dust mite allergy; assay: RBL degranulation; format: cell-based; settings: RBL cells pre-incubated with human serums
Protocol: Degranulation assay was performed as described in [37]. RBL-703/21 cells transfected with human Fc epsilon RI receptor were plated in 96-well tissue culture plates (10^5 cells/well) overnight. Passive sensitization of RBL-703/21 cells was carried out with sera from patients with house dust mite allergy at 1:20 overnight. Unbound antibodies were removed by washing the cell layer twice in Hanks' balanced salt solution (Gibco, Life technologies) the next day. Degranulation of RBL cells was induced for 1 h at 37° C. by adding nDer p1, nDer p 2 or individual COPs and mixes at indicated concentrations diluted in Tyrode's buffer (130 mM NaCl, 5 mM KCl, 1.4 mM CaCl2, 1 mM MgCl2, 5.6 mM glucose, 10 mM HEPES pH7.4, 0.1% BSA). β-hexosaminidase activity was analyzed by incubating 30 μl of cell supernatant with 50 μl of 1.3 mg/ml 4-Nitrophenyl N-acetyl-β-D-glucosaminide (Sigma) in citrate buffer (0.1M, pH 4.5) for 1 h at 37° C. The reaction was stopped by addition of 100 μl glycine buffer (0.2M glycine, 0.2M NaCl, pH 10.7) and optical densities (OD) were measured at 405 nm.

Compound	IgE binding in competition ELISA (Der p 1) [1]	IgE binding in competition ELISA (Der p 2) [2]	also measured
CC[C@H](C)[C@H](NC(=O)CNC(=O)[C@H](Cc1ccccc1)NC(=O)[C@H](CCCNC(=N)N)NC(=O)[C@H](CCC(N)=O)NC(=O)[C@H](C)NC(=O)[C@H](CC(N)=O)NC(=O)[C@@H]1CCCN1C(=O)[C@H](CCCNC(=N)N)NC(=O)[C@H](CCCNC(=N)N)NC(=O)[C@H](CS)NC(=O)[C@H](CO)NC(=O)[C@H](CCC(N)=O)NC(=O)[C@H](CCC(=O)O)NC(=O)[C@H](CCCNC(=N)N)NC(=O)[C@H](C)NC(=O)[C@@H](NC(=O)[C@H](Cc1ccc(O)cc1)NC(=O)[C@@H](N)CCCNC(=N)N)C(C)C)C(=O)N[C@@H](CO)C(=O)N[C@@H](CC(N)=O)C(=O)N[C@@H](Cc1ccc(O)cc1)C(=O)N[C@@H](CS)C(=O)N[C@@H](CCC(N)=O)C(=O)N[C@H](C(=O)N[C@@H](Cc1ccc(O)cc1)C(=O)N1CCC[C@H]1C(=O)N1CCC[C@H]1C(=O)N[C@@H](CC(N)=O)C(=O)N[C@H](C(=O)N[C@@H](CC(N)=O)C(=O)N[C@@H](CCCCN)C(=O)N[C@H](C(=O)N[C@@H](CCCNC(=N)N)C(=O)N[C@@H](CCC(=O)O)C(=O)O)[C@@H](C)CC)C(C)C)[C@@H](C)CC [AllerDM1.54] (H-RYVAREQSCRRPNAQRFGISNYCQIYPPNVNKIRE-OH; N-terminus and C-terminus assumed)	same IgE non-binding properties as AllerDM1.5a	–	–
CC[C@H](C)[C@H](NC(=O)CNC(=O)[C@H](Cc1ccccc1)NC(=O)[C@H](CCCNC(=N)N)NC(=O)[C@H](CCC(N)=O)NC(=O)[C@H](C)NC(=O)[C@H](CC(N)=O)NC(=O)[C@@H]1CCCN1C(=O)[C@H](CCCNC(=N)N)NC(=O)[C@H](CCCNC(=N)N)NC(=O)[C@H](CS)NC(=O)[C@H](CO)NC(=O)[C@H](CCC(N)=O)NC(=O)[C@H](CCC(=O)O)NC(=O)[C@H](CCCNC(=N)N)NC(=O)[C@H](C)N)C(=O)N[C@@H](CO)C(=O)N[C@@H](CC(N)=O)C(=O)N[C@@H](Cc1ccc(O)cc1)C(=O)N[C@@H](CS)C(=O)N[C@@H](CCC(N)=O)C(=O)N[C@H](C(=O)N[C@@H](Cc1ccc(O)cc1)C(=O)N1CCC[C@H]1C(=O)N1CCC[C@H]1C(=O)N[C@@H](CC(N)=O)C(=O)N[C@H](C(=O)N[C@@H](CC(N)=O)C(=O)N[C@@H](CCCCN)C(=O)N[C@H](C(=O)N[C@@H](CCCNC(=N)N)C(=O)N[C@@H](CCC(=O)O)C(=O)O)[C@@H](C)CC)C(C)C)[C@@H](C)CC [AllerDM1.5a] (H-AREQSCRRPNAQRFGISNYCQIYPPNVNKIRE-OH; N-terminus and C-terminus assumed)	did not show any detectable IgE binding	–	–
HYMKCPLVKGQQYDIKYTWNVPKIAPKSENVVVTVKVLGDNGVLACAIATHAKIRD (cysteines drawn unpaired) [AllerDM2.5]	–	IgE binding was restricted to AllerDM2.5	IgE binding in direct ELISA (IgE): IgE binding was restricted to AllerDM2.5
KYTWNVPKIAPKSENVVVTVKVLGDNGVLACAIATHAKIRD [AllerDM2.8]	–	bind IgE non-specifically	–
HGSEPCIIHRGKPFQLEALFEANQNSKTAKIEIKASIDGLEVDVPGIDPNACHYMK (cysteines drawn unpaired) [AllerDM2.4]	–	did not bind IgE; also recorded: no residual IgE binding	basophil degranulation in RBL assay [3]: each individual peptide did not; also recorded: not able to trigger basophil degranulation
PNVNKIREALAQTHSAIAVIIGIKDLDAFRHYDGR [AllerDM1.63]	did not show any detectable IgE binding	–	–
SIDGLEVDVPGIDPNACHYMKCPLVKGQQYDIKYTWNVPKIAPKSENVVVTVKVLGD (cysteines drawn unpaired) [AllerDM2.10]	–	no residual IgE binding	–
KVLGDNGVLACAIATHAKIRD [AllerDM2.9]	–	no residual IgE binding	–
ASQHGCHGDTIPRGIEYIQHNGVVQESYYRYVAREQS [AllerDM1.53]	did not show any detectable IgE binding	–	–
CC[C@H](C)[C@H](NC(=O)[C@H](CCC(=O)O)NC(=O)[C@H](Cc1c[nH]cn1)NC(=O)[C@H](CC(N)=O)NC(=O)[C@H](C)NC(=O)[C@H](CS)NC(=O)[C@H](CC(=O)O)NC(=O)[C@H](CCCCN)NC(=O)[C@@H](NC(=O)[C@H](CC(=O)O)NC(=O)[C@@H](NC(=O)[C@H](CCC(N)=O)NC(=O)[C@@H](N)CC(=O)O)C(C)C)C(C)C)C(=O)N[C@@H](CCCCN)C(=O)N[C@@H](CCCCN)C(=O)N[C@H](C(=O)N[C@@H](CC(C)C)C(=O)N[C@H](C(=O)N1CCC[C@H]1C(=O)NCC(=O)N[C@@H](CS)C(=O)N[C@@H](Cc1c[nH]cn1)C(=O)NCC(=O)N[C@@H](CO)C(=O)N[C@@H](CCC(=O)O)C(=O)O)C(C)C)C(C)C [AllerDM2.3] (H-DQVDVKDCANHEIKKVLVPGCHGSE-OH; N-terminus and C-terminus assumed)	–	no residual IgE binding	–
RHYDGRTIIQRDNGYQPNYHAVNIVGYSNAQGVD [AllerDM1.64]	did not show any detectable IgE binding	–	–
